Data: publication PMC10930919
No constants are given. Whether binding was seen depends on the method and setting. Binding seen in cells or lysates may run through a third protein. Some results given as binding are weak or reduced against the parent protein; the word gives no strength. For part of these data: Tags and fused reporters may be left off the sequences shown.

B1: Jun dimerization protein 2 (JDP2 expression plasmid of Figure 2A) (protein, UniProt Q8WYK2 1-163)
chain: MMPGQIPDPSVTTGSLPGLGPLTGLPSSALTVEELKYADIRNLGAMIAPLHFLEVKLGKRPQPVKSELDEEEERRKRRREKNKVAAARCRNKKKERTEFLQRESERLELMNAELKTQIEELKQERQQLILMLNRHRPTCIVRTDSVKTPESEGNPLLEQLEKK
B2: HIS-tagged Jun dimerization protein 2 (JDP2), WT (protein, UniProt Q8WYK2 1-163)
chain: MMPGQIPDPSVTTGSLPGLGPLTGLPSSALTVEELKYADIRNLGAMIAPLHFLEVKLGKRPQPVKSELDEEEERRKRRREKNKVAAARCRNKKKERTEFLQRESERLELMNAELKTQIEELKQERQQLILMLNRHRPTCIVRTDSVKTPESEGNPLLEQLEKK
B3: HIS-tagged activating transcription factor 3 (ATF3) (protein, UniProt P18847 1-181)
chain: MMLQHPGQVSASEVSASAIVPCLSPPGSLVFEDFANLTPFVKEELRFAIQNKHLCHRMSSALESVTVSDRPLGVSITKAEVAPEEDERKKRRRERNKIAAAKCRNKKKEKTECLQKESEKLESVNAELKAQIEELKNEKQHLIYMLNLHRPTCIVRAQNGRTPEDERNLFIQQIKEGTLQS

Legend:
[1] = target: p53 (p53 expression plasmid of Figure 2A) (human) (UniProt P04637); experiment: co-IP; H1299 cells co-transfected with p53 and JDP2 plasmids, 48 h; whole cell lysates immunoprecipitated with anti-p53 antibody, blot with anti-JDP2
MYC-tagged p53 (human) = MYC-tagged p53 (human) (UniProt P04637); experiment: co-IP; H1299 cells co-transfected with MYC-tagged p53 and HIS-tagged JDP2 (WT or truncated) or ATF3, 48 h; whole cell lysates immunoprecipitated with anti-MYC antibody, blots with anti-ATF3, anti-JDP2 or anti-HIS

| Binder | binding [1] | binding (MYC-tagged p53 (human)) |
| --- | --- | --- |
| B1 | binds | – |
| B2 | – | binds |
| B3 | – | binds |
